The whole screen tested about 400,000 compounds, of which about 13,000 (3.2%) were called active. The inconclusive results got no clear call from the source; some entries with a clear call stand among them for comparison. The call rests on the fitted dose curve; in most records, active means well fitted cell-killing curve with a large enough effect; inconclusive means small, poorly fitted or top-dose-only effect, or effect the other way; inactive means flat fitted curve, though single readings scatter. Potencies beside an inconclusive call are fits to weak or partial responses and may not hold up.
experiment: qHTS assay for MDR1-selective chemotherapeutics: Primary screen using the drug-selected MDR subline cells KB-V1; details: KB-V1 MDR cells viability, CellTiter-Glo, 72 h; activity change, negative = cytotoxicity: at 46.1 µM (top of the series); further: nearly all actives have a fitted effect of over 60% in size
In short: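 Drug-selected KB-V1 cells, grown in DMEM lacking phenol red with 10% FBS, receive compound titrations; after three days at 37 degrees C, surviving cell ATP is quantified by CellTiter-Glo luminescence and responses normalized and curve-fitted.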
On the % scale 0 is the no-effect control and ±100 the full control effect; potency means the concentration at half of the fitted maximal effect.

Row | SMILES | Potency | activity change, negative = cytotoxicity
1 | CCOC(=O)c1sc(NC(=O)c2nc3ncccn3n2)c(C(=O)OC(C)C)c1C | inactive | –
2 | Cc1ccc(NC(=S)NCCN(C2CCCCC2)C2CCCC2)cc1C | inconclusive: 16.4 µM [cytotoxic, partial curve] | –
3 | COc1ccc(C)cc1NC(=O)c1cc2c(s1)CCC2 | inconclusive: 18.4 µM [cytotoxic, single point] | –
4 | Cc1cc(N2CCN(C)CC2)nc2ccc(NC(=O)CCC(=O)NCCC(C)C)cc12 | – | inconclusive: 19.8%
5 | CC1CCC2(CC1)NC(=O)N(CC(=O)NCCc1ccc(F)cc1)C2=O (stereo unspecified) | inconclusive: 29.1 µM [rising, single point] | –
6 | COc1ccc(C(=O)COC(=O)C(CCSC)NS(=O)(=O)c2ccc(Cl)cc2)cc1 (stereo unspecified) | active: 23.1 µM | –
7 | COc1ccc(-c2cc(C(=O)Nc3ccccc3O)c3ccccc3n2)cc1OC | inconclusive: 0.0259 µM [cytotoxic, full curve] | –
8 | Cc1cc(Cl)c2oc(C(=O)N(C)Cc3cc(C)[nH]n3)c(C)c2c1 | inconclusive: 11.6 µM [cytotoxic, partial curve] | –
9 | CCCCCc1cc(=O)oc2c(C(CCN(CC)CC)c3ccc(N(C)C)cc3)c(OC)cc(OC)c12 (stereo unspecified) | inconclusive: 18.4 µM [cytotoxic, single point] | –
10 | Cc1ccc2nc(-c3ccccc3)c(CN3CCN(c4ccccc4F)CC3)n2c1 | inactive | –
11 | Cc1nnc(N2CCCC(C(=O)Nc3ccccc3C(F)(F)F)C2)c2nn(-c3ccccc3)c(C)c12 (stereo unspecified) | inactive | –
12 | COc1ccc(-c2nc3c4ccccc4ccn3c2CC2CCCCC2)cc1OC | inactive | –
13 | CN(C)Cc1ccccc1Sc1cccc2ccccc12 | inconclusive: 20.6 µM [cytotoxic, partial curve, poor fit] | –
14 | COc1ccc(C2=NOC(C(=O)NCc3cccnc3)C2)cc1OC (stereo unspecified) | inconclusive: 29.1 µM [cytotoxic, single point] | –
15 | CCOc1ccccc1-c1nc(-c2cc3ccc(C)cc3[nH]c2=O)no1 | inconclusive: 18.4 µM [cytotoxic, single point] | –
16 | O=C(Nc1ccc(C(=O)O)cc1)/C(=C\c1ccc2c(c1)OCO2)NC(=O)c1ccccc1Cl | inactive | –
17 | COc1ccc(OCC(=O)Nc2c(C(=O)N3CCN(C)CC3)oc3ccccc23)cc1 | inactive | –
18 | COc1ccc(NC(=O)C2C3C=CC4(CN(Cc5cccnc5)C(=O)C24)O3)c(OC)c1 (stereo unspecified) | inconclusive: 29.1 µM [rising, single point] | –
19 | CN(/N=C/c1ccc2c(c1)OCO2)c1ccccc1 | inactive | –
20 | Cc1csc2nc(CCNS(=O)(=O)c3ccc4c(c3)OCCO4)cn12 | inconclusive: 14.6 µM [rising, single point] | –
21 | CCOCCn1c(COc2ccc(C)cc2)nc2ccccc21 | active: 16.4 µM | –
22 | Cc1ccccc1NC(=S)N(CCCN1CCOCC1)Cc1ccccn1 | inconclusive: 18.4 µM [cytotoxic, single point] | –
23 | CC(C)c1nnc(NC(=O)c2nc(S(=O)(=O)Cc3ccc(F)cc3)ncc2Cl)s1 | inactive | –
24 | C=CCOc1ccc(CN(C)CC(=O)Nc2ccccc2[N+](=O)[O-])cc1 | inconclusive: 20.6 µM [cytotoxic, single point] | –

Part of the list above, reformatted.
Row,SMILES,Potency,"activity change, negative = cytotoxicity"
10,Cc1ccc2nc(-c3ccccc3)c(CN3CCN(c4ccccc4F)CC3)n2c1,inactive,–
11,Cc1nnc(N2CCCC(C(=O)Nc3ccccc3C(F)(F)F)C2)c2nn(-c3ccccc3)c(C)c12 (stereo unspecified),inactive,–
12,COc1ccc(-c2nc3c4ccccc4ccn3c2CC2CCCCC2)cc1OC,inactive,–
13,CN(C)Cc1ccccc1Sc1cccc2ccccc12,"inconclusive: 20.6 µM [cytotoxic, partial curve, poor fit]",–
14,COc1ccc(C2=NOC(C(=O)NCc3cccnc3)C2)cc1OC (stereo unspecified),"inconclusive: 29.1 µM [cytotoxic, single point]",–
15,CCOc1ccccc1-c1nc(-c2cc3ccc(C)cc3[nH]c2=O)no1,"inconclusive: 18.4 µM [cytotoxic, single point]",–

Carrying on:

Row | SMILES | Potency | activity change, negative = cytotoxicity
25 | O=C(NCCc1ccccn1)c1cc(-c2ccccc2Cl)nc2ccccc12 | inconclusive: 10.3 µM [cytotoxic, partial curve] | –
26 | CCC1(O)C(=O)OCc2c1cc1n(c2=O)Cc2cc3cc(O)ccc3nc2-1 (stereo unspecified) | inconclusive: 32.6 µM [cytotoxic, single point] | –
27 | COCCCN1C(=O)C(=O)/C(=C(/O)c2ccc(S(=O)(=O)N3CCOCC3)cc2)C1c1ccc(OC)cc1 (stereo unspecified) | inactive | –
28 | CC1(C(=O)Nc2cccc3cccnc23)CCN1Cc1cccc2c1OCO2 (stereo unspecified) | inconclusive: 23.1 µM [cytotoxic, single point] | –
29 | CCN(CC)C(=O)C1=C(C)N(CCC2=CCCCC2)C(=O)C(CC(=O)NC(c2ccccc2)c2ccccc2)C1 (stereo unspecified) | inconclusive: 5.17 µM [cytotoxic, partial curve, poor fit] | –
30 | COc1ccc(OC)c(NC(=O)Cc2c(C(=O)O)[nH]c3ccc(Cl)cc23)c1 | inconclusive: 16.4 µM [rising, partial curve, poor fit] | –
31 | CCc1ccccc1NC(=O)Cc1ccc(-n2c(C)nc3cccnc32)cc1 | inactive | –
32 | CSc1nnc(N2C(=O)C(O)=C(C(=O)c3ccco3)C2c2ccccc2F)s1 (stereo unspecified) | inconclusive: 8.2 µM [rising, partial curve] | –
33 | COc1ccc(CNC(=O)c2ccc3c(c2)N(Cc2ccccc2F)C(=O)c2ccccc2S3=O)cc1 (stereo unspecified) | inactive | –
34 | CC1=CC(=O)C=C(C)C1=NOS(=O)(=O)c1ccccc1 | inconclusive: 29.1 µM [cytotoxic, single point] | –
35 | Cc1ccc(Nc2nc(NCC3CC3)nc3ccsc23)c(C)c1 | inconclusive: 29.1 µM [cytotoxic, single point] | –
36 | CC(=O)Nc1ccc(C=NNC(=O)c2ccc(NS(=O)(=O)c3cccs3)cc2)cc1 | inconclusive: 23.1 µM [rising, single point] | –
37 | Cc1ccc(Cl)cc1NC(=O)C[n+]1ccc(Cc2ccc([N+](=O)[O-])cc2)cc1 | inconclusive: 23.1 µM [rising, partial curve, poor fit] | –
38 | C=CCNC(=O)c1c2c(nc3ccccc13)-c1ccccc1CC2 | inconclusive: 32.6 µM [cytotoxic, single point] | –
39 | CCCCCCC(=O)N(O)C1CC(=O)N(c2ccc(Cl)cc2)C1=O (stereo unspecified) | inactive | –
40 | CCc1nc2ccccc2n1Cc1ccc(F)cc1 | inconclusive: 9.2 µM [cytotoxic, single point] | –
41 | CN1C/C(=C\c2ccc(N3CCOCC3)cc2)C(=O)/C(=C/c2ccc(N3CCOCC3)cc2)C1 | active: 20.6 µM | –
42 | O=C(C1CCN(S(=O)(=O)c2ccccc2)CC1)N1CCOCC1 | inactive | –
43 | Cc1ccnc(NC(=O)c2ccc(S(=O)(=O)NCc3ccco3)cc2)c1 | inconclusive: 29.1 µM [cytotoxic, single point] | –
44 | CCOc1ccccc1NC(=O)CN(c1ccc(OC)cc1)S(=O)(=O)c1c(C)noc1C | active: 2.59 µM | –
45 | Nc1ccc2cccnc2c1 | – | inconclusive: -39.3%
46 | O=C(Nc1ccccn1)c1cc2ccccc2o1 | inconclusive: 29.1 µM [cytotoxic, single point] | –
47 | COc1ccc(NC(=O)CSc2nc3ccccc3n2CC(=O)N2CCCC(C)C2)cc1 (stereo unspecified) | inactive | –
48 | Cc1cc(C)n(-c2nc3cc(Cl)c(Cl)cc3nc2Nc2ccc(F)cc2C)n1 | inconclusive: 18.4 µM [rising, single point] | –

Row | SMILES | Potency | activity change, negative = cytotoxicity
49 | CC1(C)Cc2c(cnn2-c2ccccc2)C(NC(=O)c2ccoc2)C1 (stereo unspecified) | inconclusive: 7.31 µM [cytotoxic, partial curve] | –
50 | O=C(NCCc1csc(-c2cccnc2)n1)c1ccc(Cl)cc1 | inactive | –
51 | C[C@@H](Nc1nc(Cl)nc2nc[nH]c12)c1ccccc1 | inactive | –
52 | Cc1nnc(C)n1N | inactive | –
53 | CCOC(=O)C1(CC2CC2)CCN(Cc2cnc(-c3ccccc3C)nc2)CC1 | inconclusive: 29.1 µM [cytotoxic, single point] | –
54 | Cc1cccc(NCc2nc3ccccc3n2Cc2ccccc2)c1 | inconclusive: 25.9 µM [cytotoxic, single point] | –
55 | CC(=O)N1c2ccc(C)cc2C(c2ccccc2)CC1C (stereo unspecified) | inconclusive: 3.66 µM [cytotoxic, full curve, poor fit] | –
56 | O=C(NC(=S)Nc1ccc2[nH]c(=O)[nH]c2c1)c1ccccc1[N+](=O)[O-] | inactive | –
57 | Cc1cc(C)c(Cn2c3ccccc3c3cnn(CC(=O)NC4CCCCCC4)c(=O)c32)c(C)c1 | inconclusive: 8.2 µM [rising, single point] | –
58 | Cc1cccc2c1cnn2C(=O)Nc1cc(F)ccc1F | inconclusive: 29.1 µM [rising, single point] | –
59 | CC(C)C[C@@H](COc1ccccc1)N1CCN(Cc2ccccc2)CCC1=O | inconclusive: 6.51 µM [cytotoxic, partial curve] | –
60 | CC(=O)Nc1ccc(-c2ccnc3c2CC(C)(C(=O)NCc2ccc(N(C)C)cc2)O3)cc1 (stereo unspecified) | inconclusive: 29.1 µM [cytotoxic, single point] | –
61 | CCN(CC)S(=O)(=O)c1cccc(C(=O)NC2CCCCC2)c1 | active: 18.4 µM | –
62 | COc1cccc(C(=O)NCc2ccccc2OC)c1 | inconclusive: 23.1 µM [cytotoxic, single point] | –
63 | COc1cc(O)c(C(CC(=O)N2CCC(c3ccccc3)CC2)c2ccc(OC)c(OC)c2)c(OC)c1 (stereo unspecified) | inconclusive: 35.5 µM [cytotoxic, single point] | –
64 | COc1cc2c(cc1OC)C(Cc1ccccc1[N+](=O)[O-])=NCC2 | active: 20.6 µM | –
65 | c1ccc(Cn2nnc3c(N4CCc5ccccc5C4)ncnc32)cc1 | active: 14.6 µM | –
66 | O=C(/C=C/c1ccccc1Cl)c1cccnc1 | inconclusive: 23.1 µM [cytotoxic, single point] | –
67 | Cc1ccc(F)c(S(=O)(=O)NC(=O)C2(C)CCN2C(=O)CC(c2ccccc2)c2ccccc2)c1 (stereo unspecified) | inactive | –
68 | O=C1CN(C(=O)COc2ccc(Br)cc2F)c2ccccc2N1 | inconclusive: 23.1 µM [cytotoxic, partial curve, poor fit] | –
69 | CC1CCN(C(=S)NC(=O)c2ccc(C(C)(C)C)cc2)CC1 | inactive | –
70 | CC(C)(Sc1cc(C(C)(C)C)c(O)c(C(C)(C)C)c1)Sc1cc(C(C)(C)C)c(O)c(C(C)(C)C)c1 | inconclusive: 0.58 µM [rising, full curve] | –
71 | COC(C[C@@H]1O[C@H]1[C@H](O)COCc1ccccc1)OC | inactive | –

— PubChem BioAssay AID1347076 (National Center for Advancing Translational Sciences (NCATS), 2019)
